Some of these results come from one statement about several compounds together.
Biological target: T1, human beta 2 adrenoreceptor (Homo sapiens, UniProt P07550)
T1 construct: expressed in transfected cells; host or cells: frog melanophores
Experiment: beta 2 agonist potency in frog melanophores (pigment dispersal, light transmittance)
Type: cell-based
Settings: frog melanophores transfected with the human beta 2 adrenoreceptor; melatonin-aggregated pigment; agonist activity

Sequences of proteins named here, by UniProt entry; tags and fusion partners are left off.
UniProt P07550, whole entry: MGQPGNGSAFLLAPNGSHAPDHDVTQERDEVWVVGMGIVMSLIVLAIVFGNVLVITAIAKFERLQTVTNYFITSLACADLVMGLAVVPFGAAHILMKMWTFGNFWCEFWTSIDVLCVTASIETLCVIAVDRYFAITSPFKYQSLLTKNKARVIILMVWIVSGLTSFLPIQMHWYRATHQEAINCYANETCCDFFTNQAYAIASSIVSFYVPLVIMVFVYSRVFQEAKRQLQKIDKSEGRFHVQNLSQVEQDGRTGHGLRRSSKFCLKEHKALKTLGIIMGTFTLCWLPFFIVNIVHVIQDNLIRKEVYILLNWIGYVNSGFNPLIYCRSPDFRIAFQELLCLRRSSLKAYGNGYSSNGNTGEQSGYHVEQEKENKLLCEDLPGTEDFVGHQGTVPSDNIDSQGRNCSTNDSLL

| SMILES | IC50 [nM] |
| --- | --- |
| O=C(Nc1ccccc1)Nc1cccc(COCCOCCCCCCNC[C@H](O)c2ccc(O)c(CO)c2)c1 [Example 1, N-{3-[(2-{[6-({(2R)-2-hydroxy-2-[4-hydroxy-3-(hydroxymethyl)-phenyl]ethyl}amino)hexyl]oxy}ethoxy)methyl]phenyl}-N′-phenylurea acetate] | < 1000 |
| O=C(Nc1ccc(-c2ccccc2)cc1)Nc1cccc(COCCOCCCCCCNC[C@H](O)c2ccc(O)c(CO)c2)c1 [Example 5, N-(1,1′-biphenyl-4-yl)-N′-{3-[(2-{[6-({(2R)-2-hydroxy-2-[4-hydroxy-3-(hydroxymethyl)phenyl]ethyl}amino)hexyl]oxy}ethoxy)methyl]phenyl}urea] | < 1000 |
| O=C(Nc1cccc(COCCOCCCCCCNC[C@H](O)c2ccc(O)c(CO)c2)c1)NC1CCCCC1 [Example 6, N-cyclohexyl-N′-{3-[(2-{[6-({(2R)-2-hydroxy-2-[4-hydroxy-3-(hydroxymethyl)phenyl]ethyl}amino)hexyl]oxy}ethoxy)methyl]phenyl}urea] | < 1000 |
| O=C(Nc1cccc(COCCOCCCCCCNC[C@H](O)c2ccc(O)c(CO)c2)c1)Nc1cccc(NC(=O)c2cccnc2)c1 [Example 21, N-(3-{[({3-[(2-{[6-({(2R)-2-hydroxy-2-[4-hydroxy-3-(hydroxymethyl)-phenyl]ethyl}amino)hexyl]oxy}ethoxy)methyl]phenyl}amino)carbonyl]amino}phenyl)pyridine-3-carboxamide] | < 1000 |
| O=S(=O)(NC1CCCCC1)c1cccc(COCCOCCCCCCNC[C@H](O)c2ccc(O)c(CO)c2)c1 [Example 22, N-cyclohexyl-3-[(2-{[6-({(2R)-2-hydroxy-2-[4-hydroxy-3-(hydroxymethyl)phenyl]ethyl}amino)hexyl]oxy}ethoxy)methyl]benzenesulfonamide compound with (2E)-but-2-enedioic acid (2:1)] | < 1000 |
| OCc1cc([C@@H](O)CNCCCCCCOCCOCc2cccc(NCc3cn4c(n3)SCC4)c2)ccc1O [Example 24, 4-[(1R)-2-({6-[2-({3-[(2,3-dihydroimidazo[2,1-b][1,3]thiazol-6-ylmethyl)amino]benzyl}oxy)ethoxy]hexyl}amino)-1-hydroxyethyl]-2-(hydroxymethyl)phenol acetate (1:2)] | < 1000 |
| O=S(=O)(NC1CC1)c1ccccc1-c1cccc(COCCOCCCCCCNC[C@H](O)c2ccc(O)c(CO)c2)c1 [Example 25, N-cyclopropyl-3′-[(2-{[6-({(2R)-2-hydroxy-2-[4-hydroxy-3-(hydroxy-methyl)phenyl]ethyl}amino)hexyl]oxy}ethoxy)methyl]-1,1′-biphenyl-2-sulfonamide acetate] | < 1000 |
| O=C(Nc1cccc(C#Cc2ccccc2)c1)Nc1cccc(COCCOCCCCCCNC[C@H](O)c2ccc(O)c(CO)c2)c1 [Example 26, N-{3-[(2-{[6-({(2R)-2-hydroxy-2-[4-hydroxy-3-(hydroxymethyl)-phenyl]ethyl}amino)hexyl]oxy}ethoxy)methyl]phenyl}-N′-[3-(phenylethynyl)phenyl]urea] | < 1000 |
| O=C(Nc1cccc(COCCOCCCCCCNC[C@H](O)c2ccc(O)c(CO)c2)c1)OC1CCCC1 [Example 28, cyclopentyl 3-[(2-{[6-({(2R)-2-hydroxy-2-[4-hydroxy-3-(hydroxymethyl)phenyl]ethyl}amino)hexyl]oxy}ethoxy)methyl]phenylcarbamate acetate] | < 1000 |
| O=c1[nH]cc(-c2cccc(-c3cccc(COCCOCCCCCCNC[C@H](O)c4ccc(O)c(CO)c4)c3)c2)c(=O)[nH]1 [Example 29, 5-{3′-[(2-{[6-({(2R)-2-hydroxy-2-[4-hydroxy-3-(hydroxymethyl)-phenyl]ethyl}amino)hexyl]oxy}ethoxy)methyl]-1,1′-biphenyl-3-yl}pyrimidine-2,4(1H,3H)-dione acetate] | < 1000 |
| CCc1cccc(NC(=O)Nc2cccc(COCCOCCCCCCNC[C@H](O)c3ccc(O)c(CO)c3)c2)c1 [Example 32, N-(3-Ethylphenyl)-N′-{3-[(2-{[6-({(2R)-2-hydroxy-2-[4-hydroxy-3-(hydroxymethyl)phenyl]ethyl}amino)hexyl]oxy}ethoxy)methyl]phenyl}urea acetate] | < 1000 |
| Cc1cccc(NC(=O)Nc2cccc(COCCOCCCCCCNC[C@H](O)c3ccc(O)c(CO)c3)c2)c1 [Example 33, N-{3-[(2-{[6-({(2R)-2-Hydroxy-2-[4-hydroxy-3-(hydroxymethyl)phenyl]ethyl}amino)hexyl]oxy}ethoxy)methyl]phenyl}-N′-(3-methylphenyl)urea acetate] | < 1000 |
| O=C(Nc1cccc(COCCOCCCCCCNC[C@H](O)c2ccc(O)c(CO)c2)c1)Nc1cccc(C(F)(F)F)c1 [Example 34, N-{3-[(2-{[6-({(2R)-2-Hydroxy-2-[4-hydroxy-3-(hydroxymethyl)phenyl]ethyl}amino)hexyl]oxy}ethoxy)methyl]phenyl}-N′-[3-(trifluoromethyl)phenyl]urea acetate] | < 1000 |
| O=C(Nc1cc(Cl)cc(Cl)c1)Nc1ccccc1COCCOCCCCCCNC[C@H](O)c1ccc(O)c(CO)c1 [Example 35, N-(3,5-Dichlorophenyl)-N′-{2-[(2-{[6-({(2R)-2-hydroxy-2-[4-hydroxy-3-(hydroxymethyl)phenyl]ethyl}amino)hexyl]oxy}ethoxy)methyl]phenyl}urea acetate] | < 1000 |
| O=C(Nc1cccc(Cl)c1)Nc1cccc(COCCOCCCCCCNC[C@H](O)c2ccc(O)c(CO)c2)c1 [Example 36, N-(3-Chlorophenyl)-N′-{3-[(2-{[6-({(2R)-2-hydroxy-2-[4-hydroxy-3-(hydroxymethyl)phenyl]ethyl}amino)hexyl]oxy}ethoxy)methyl]phenyl}urea acetate] | < 1000 |
| O=C(Nc1cccc(I)c1)Nc1cccc(COCCOCCCCCCNC[C@H](O)c2ccc(O)c(CO)c2)c1 [Example 37, N-{3-[(2-{[6-({(2R)-2-Hydroxy-2-[4-hydroxy-3-(hydroxymethyl)phenyl]-ethyl}amino)hexyl]oxy}ethoxy)methyl]phenyl}-N′-(3-iodophenyl)urea acetate] | < 1000 |
| O=C(Nc1cccc(COCCOCCCCCCNC[C@H](O)c2ccc(O)c(CO)c2)c1)c1cccnc1 [Example 39, N-{3-[(2-{[6-({(2R)-2-Hydroxy-2-[4-hydroxy-3-(hydroxymethyl)phenyl]ethyl}-amino)hexyl]oxy}ethoxy)methyl]phenyl}pyridine-3-carboxamide acetate] | < 1000 |
| O=C(Nc1cccc(COCCOCCCCCCNC[C@H](O)c2ccc(O)c(CO)c2)c1)c1cccs1 [Example 40, N-{3-[(2-{[6-({(2R)-2-Hydroxy-2-[4-hydroxy-3-(hydroxymethyl)phenyl]ethyl}-amino)hexyl]oxy}ethoxy)methyl]phenyl}thiophene-2-carboxamide acetate] | < 1000 |
| O=C(Nc1cccc(COCCOCCCCCCNC[C@H](O)c2ccc(O)c(CO)c2)c1)c1ccccc1 [Example 41, N-{3-[(2-{[6-({(2R)-2-Hydroxy-2-[4-hydroxy-3-(hydroxymethyl)phenyl]ethyl}-amino)hexyl]oxy}ethoxy)methyl]phenyl}benzamide acetate] | < 1000 |
| O=C(Nc1cccc(C(=O)Nc2cccc(COCCOCCCCCCNC[C@H](O)c3ccc(O)c(CO)c3)c2)c1)c1ccccc1 [Example 42, 3-(Benzoylamino)-N-{3-[(2-{[6-({(2R)-2-hydroxy-2-[4-hydroxy-3-(hydroxymethyl)-phenyl]ethyl}amino)hexyl]oxy}ethoxy)methyl]phenyl}benzamide acetate] | < 1000 |
| O=C(Nc1cccc(COCCOCCCCCCNC[C@H](O)c2ccc(O)c(CO)c2)c1)c1cccc(NC(=O)c2cccs2)c1 [Example 43, N-{3-[({3-[(2-{[6-({(2R)-2-Hydroxy-2-[4-hydroxy-3-(hydroxymethyl)phenyl]ethyl}-amino)hexyl]oxy}ethoxy)methyl]phenyl}amino)carbonyl]phenyl}thiophene-2-carboxamide acetate] | < 1000 |
| O=C(Nc1cccc(C(=O)Nc2cccc(COCCOCCCCCCNC[C@H](O)c3ccc(O)c(CO)c3)c2)c1)c1cccnc1 [Example 44, N-{3-[({3-[(2-{[6-({(2R)-2-Hydroxy-2-[4-hydroxy-3-(hydroxymethyl)phenyl]ethyl}-amino)hexyl]oxy}ethoxy)methyl]phenyl}amino)carbonyl]phenyl}nicotinamide acetate (1:2)] | < 1000 |
| O=C(Nc1cccc(COCCOCCCCCCNC[C@H](O)c2ccc(O)c(CO)c2)c1)Nc1cccc(NS(=O)(=O)c2ccccc2)c1 [Example 45, N-(3-{[({3-[(2-{[6-({(2R)-2-Hydroxy-2-[4-hydroxy-3-(hydroxymethyl)phenyl]ethyl}-amino)hexyl]oxy}ethoxy)methyl]phenyl}amino)carbonyl]amino}phenyl)-benzenesulfonamide] | < 1000 |
| OCc1cc([C@@H](O)CNCCCCCCOCCOCc2cccc(-c3cnc(O)nc3O)c2)ccc1O [Example 51, 5-{3-[(2-{[6-({(2R)-2-Hydroxy-2-[4-hydroxy-3-(hydroxymethyl)phenyl]ethyl}-amino)hexyl]oxy}ethoxy)methyl]phenyl}pyrimidine-2,4-diol acetate] | < 1000 |
| OCc1cc([C@@H](O)CNCCCCCCOCCOCc2c(F)cccc2C(F)(F)F)ccc1O [Example 54, 4-((1R)-2-{[6-(2-{[2-Fluoro-6-(trifluoromethyl)benzyl]oxy}ethoxy)hexyl]amino}-1-hydroxyethyl)-2-(hydroxymethyl)phenol] | < 1000 |
| Cc1c(COCCOCCCCCCNC[C@H](O)c2ccc(O)c(CO)c2)cccc1-c1ccccc1 [Example 56, 2-(Hydroxymethyl)-4-{(1R)-1-hydroxy-2-[(6-{2-[(2-methyl-1,1′-biphenyl-3-yl)methoxy]ethoxy}hexyl)amino]ethyl}phenol] | < 1000 |
| O=C(Nc1cccc(COCCOCCCCCCNC[C@H](O)c2ccc(O)c(CO)c2)c1)c1cccc(NCc2cn3c(n2)SCC3)c1 [Example 57, 3-[(2,3-Dihydroimidazo[2,1-b][1,3]thiazol-6-ylmethyl)amino]-N-{3-[(2-{[6-({(2R)-2-hydroxy-2-[4-hydroxy-3-(hydroxymethyl)phenyl]ethyl}amino)hexyl]oxy}ethoxy)-methyl]phenyl}benzamide acetate (1:3)] | < 1000 |
